Results reported in article PMC12581835.
For some assays here: The comparison behind a weaker result is the experiment's own reference, which may not be listed here. Tags and fusion partners may be left off the protein sequences shown. For some assays here: The exact form of at least one protein or probe is not confirmed.

How the values were obtained:
[1] = target: T1, Nab2-6xHis (Saccharomyces cerevisiae) (UniProt P32505); assay: SEC-MALS; conditions: 135 kDa complex, 2:1 Nab2:RNA; phosphate; switchSENSE: 12.5 mM HEPES-KOH pH 8.0, 75 mM KOAc, 1 mM Mg(OAc)2, 0.025 mM EDTA, 25 C; recombinant protein; residues 1-525; protein details: C-terminal 6xHis
T1 sequence (looked up): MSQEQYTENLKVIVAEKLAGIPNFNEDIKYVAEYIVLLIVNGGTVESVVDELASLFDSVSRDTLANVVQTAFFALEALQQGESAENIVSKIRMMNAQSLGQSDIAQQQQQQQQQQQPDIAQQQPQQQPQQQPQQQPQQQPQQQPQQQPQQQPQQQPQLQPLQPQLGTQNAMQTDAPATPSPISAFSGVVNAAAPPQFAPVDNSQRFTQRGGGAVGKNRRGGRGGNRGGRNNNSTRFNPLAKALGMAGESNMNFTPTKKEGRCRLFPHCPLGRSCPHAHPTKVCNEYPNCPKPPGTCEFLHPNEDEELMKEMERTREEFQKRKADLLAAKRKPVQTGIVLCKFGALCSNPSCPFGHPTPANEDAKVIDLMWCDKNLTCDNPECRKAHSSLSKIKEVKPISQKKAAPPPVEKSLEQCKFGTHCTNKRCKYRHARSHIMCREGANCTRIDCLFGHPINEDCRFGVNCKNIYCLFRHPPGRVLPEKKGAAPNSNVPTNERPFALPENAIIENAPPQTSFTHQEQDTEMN

[2] = target: T2, SII-Nab2 (Saccharomyces cerevisiae) (UniProt P32505); assay: switchSENSE; conditions: kon 7-fold slower than rA60, Kd only in Fig 2E table; switchSENSE: 12.5 mM HEPES-KOH pH 8.0, 75 mM KOAc, 1 mM Mg(OAc)2, 0.025 mM EDTA, 25 C; recombinant …; residues 1-525; protein details: N-terminal SII; label: green dye on NL-A48, chip-tethered
T2 sequence (looked up): T1 sequence (looked up)

| Sequence | binding result [1] | binding result [2] |
| --- | --- | --- |
| AAAAAAAAAAAAAAAAAAAAAAAAAAAAAAAAAAAAAAAAAAAAAAAAAAAAAAAAAAA [A59 (R006)] | binds |  |
| TAGTGCTGTAGGAGAATATACGGGCTGCTCGTGTTGACAAGTACTGAT / ACAGATGACTGCTCGTCAATATCAGTACTTGTCAACACGAGCAGCCCGTATATTCTCCTACAGCACTA / ATTGACGAGCAGTCATCTGT [DNA nanolever only] |  | binds more weakly |
